PubChem BioAssay AID1159578 – Peter MacCallum Cancer Centre | 2015
Here is a random part of about 18,000 reagents tested. About 1,030 of them (5.7%) were called active. 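Inactive calls also include pools with fewer than 3300 nuclei, whose migration was not assessed.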 Raw values vary from plate to plate and are shown uncorrected. Entries without a mark were called inactive. Further read-outs or replicates are left out here.

Assay: 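siRNA pools altering how lymphatic endothelial cells close a scratch wound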 (primary screen)
System: human lymphatic endothelial cells
Reagents: siRNA pool against human genes, 40 nM
Time to read-out: 48 h after transfection
Measured: 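Cells stained with dye and imaged after a scratch; covered wound area and nuclei counted, duplicates averaged, migration set against mock wells and turned into a robust z-score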
Reading the numbers: migration robust z-score: higher = faster migration into the scratch; nuclei per well: higher = more cells in the well
Active means: 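Migration changed when robust z exceeds 2 or falls below -2 and mean nuclei number is at least 3300; otherwise not called changed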
Calls: active = migration changed; inactive = no migration change, or too few cells

The opening 2 records as a preview:
gene | migration robust z-score | nuclei per well, duplicate mean
TAB1 (TGF-beta activated kinase 1 (MAP3K7) binding protein 1) | 0.42 | 5074
TMEM126B (transmembrane protein 126B) | -0.52 | 5707

The list itself, from the first entry:
gene | migration robust z-score | nuclei per well, duplicate mean
TAB1 (TGF-beta activated kinase 1 (MAP3K7) binding protein 1) | 0.42 | 5074
TMEM126B (transmembrane protein 126B) | -0.52 | 5707
PAPPA (pappalysin 1) | 0.31 | 5300
ISCU (iron-sulfur cluster assembly enzyme) | 0.1 | 5436
LRPPRC (leucine rich pentatricopeptide repeat containing) | -2.37 (active) | 4644
SAR1A (secretion associated Ras related GTPase 1A) | 0.44 | 5930
PPP2R3C (protein phosphatase 2 regulatory subunit B''gamma) | 0.4 | 4918
SPEM1 (spermatid maturation 1) | 0.9 | 6788
JUNB (JunB proto-oncogene, AP-1 transcription factor subunit) | -0.6 | 6380
GIGYF2 (GRB10 interacting GYF protein 2) | -0.13 | 4766
UQCR10 (ubiquinol-cytochrome c reductase, complex III subunit X) | -0.3 | 4978
ACKR5 (atypical chemokine receptor 5) | -0.65 | 5972
NUDT11 (nudix hydrolase 11) | -0.99 | 6481
TNFRSF11B (TNF receptor superfamily member 11b) | 0.88 | 5638
RFPL4AL1 (ret finger protein like 4A like 1) | -5.19 | 2774
ZNF57 (zinc finger protein 57) | 0.86 | 7579
GPR179 (G protein-coupled receptor 179) | 1.19 | 6463
CHD3 (chromodomain helicase DNA binding protein 3) | 0.03 | 5368
PRIMA1 (proline rich membrane anchor 1) | 2.12 (active) | 4966
GPRASP2 (G protein-coupled receptor associated sorting protein 2) | 1.34 | 6196
EIF4ENIF1 | 0.06 | 4112
LGI4 (leucine rich repeat LGI family member 4) | 0.88 | 6055
SCLT1 (sodium channel and clathrin linker 1) | -1.67 | 7124
